Library screen at single concentrations

Sequences of proteins named here, by UniProt entry; tags and fusion partners are left off. Residues count along the entry.
UniProt A4I591, 1-473: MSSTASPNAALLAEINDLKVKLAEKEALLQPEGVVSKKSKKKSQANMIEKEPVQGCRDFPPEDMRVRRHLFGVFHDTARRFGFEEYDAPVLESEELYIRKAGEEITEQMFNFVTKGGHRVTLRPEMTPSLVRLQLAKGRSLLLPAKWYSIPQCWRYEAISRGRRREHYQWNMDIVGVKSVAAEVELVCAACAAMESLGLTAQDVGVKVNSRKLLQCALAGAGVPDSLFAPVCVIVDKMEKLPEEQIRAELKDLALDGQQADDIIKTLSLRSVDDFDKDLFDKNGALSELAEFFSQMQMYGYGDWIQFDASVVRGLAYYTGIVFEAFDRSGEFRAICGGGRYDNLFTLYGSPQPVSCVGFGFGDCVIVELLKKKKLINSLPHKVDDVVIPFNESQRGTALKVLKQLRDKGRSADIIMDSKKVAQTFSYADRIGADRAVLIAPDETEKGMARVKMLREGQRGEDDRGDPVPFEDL
UniProt P9WNZ1, whole entry: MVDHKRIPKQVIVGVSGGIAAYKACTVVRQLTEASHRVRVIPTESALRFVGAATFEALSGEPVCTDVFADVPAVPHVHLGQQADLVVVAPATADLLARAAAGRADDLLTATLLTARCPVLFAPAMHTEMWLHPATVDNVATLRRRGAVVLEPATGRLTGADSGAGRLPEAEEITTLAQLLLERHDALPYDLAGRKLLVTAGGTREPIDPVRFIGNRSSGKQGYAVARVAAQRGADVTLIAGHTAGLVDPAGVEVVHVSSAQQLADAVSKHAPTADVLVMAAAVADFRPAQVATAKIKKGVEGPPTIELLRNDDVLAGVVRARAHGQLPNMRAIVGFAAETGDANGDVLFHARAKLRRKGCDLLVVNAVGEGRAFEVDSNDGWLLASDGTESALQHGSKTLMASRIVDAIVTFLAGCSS
UniProt P9WFT3, whole entry: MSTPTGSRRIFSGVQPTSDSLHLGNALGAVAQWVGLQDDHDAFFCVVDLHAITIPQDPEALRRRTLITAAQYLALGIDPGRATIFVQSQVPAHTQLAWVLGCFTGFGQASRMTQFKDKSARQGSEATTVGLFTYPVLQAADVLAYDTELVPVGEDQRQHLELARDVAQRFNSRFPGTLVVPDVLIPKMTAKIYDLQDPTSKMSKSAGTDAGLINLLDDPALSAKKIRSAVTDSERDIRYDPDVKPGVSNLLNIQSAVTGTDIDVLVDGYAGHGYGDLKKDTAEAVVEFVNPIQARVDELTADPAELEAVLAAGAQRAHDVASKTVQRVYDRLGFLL

Source: ChEMBL document CHEMBL3988442, “University of Dundee, Small-Polar-MMV Screening Library” (2021).

Values are the deposited “Percent Effect”, in %.
The controls that fix the scale are not given in the record; negative values are as filed.
Compounds were drawn at random from those tested, without regard to their results.

LiHisRS: 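Enzyme assay of histidyl-tRNA synthetase; the read-out is not stated. Target: Histidine-tRNA ligase, Leishmania infantum (UniProt A4I591). Concentration: 30 µM. Direction is inferred from retests: higher values go with stronger inhibition. The assay is labelled LdHisRS but filed under L. infantum. Size under these conditions: about 69,000 compounds, about 410 of them at 50% or above in at least one test.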
CoaBC: 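Enzyme assay of CoaBC with a phosphate dye (Biomol Green) read at 650 nm. Target: Coenzyme A biosynthesis protein CoaBC, Mycobacterium tuberculosis (UniProt P9WNZ1). Concentration: 30 µM. Higher reads as stronger inhibition, judged from the few compounds that gave an IC50. Most strong results did not repeat in a second test. Of about 67,000 compounds tested this way, about 40 (0.06%) reached 50% or more in at least one test.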
MtTrpRS: 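Tryptophan-tRNA ligase, Mycobacterium tuberculosis (UniProt P9WFT3). Enzyme assay of tryptophanyl-tRNA synthetase; the read-out is not stated. Tested at 10 µM. Direction is not recorded; retested compounds ran higher, which suggests that high means inhibition. About 65,000 compounds were tested under these conditions; 0.098% (about 64) showed 50% or more at least once.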

{"compound": "CC(=O)N[C@@H]1CN(Cc2ccccc2-n2cccn2)C[C@H]1C(C)C", "LiHisRS": 5.333, "CoaBC": -2.893, "MtTrpRS": -1.838}
{"compound": "N#CC1(NC(=O)COc2cc(Cl)cc(Cl)c2)CCOCC1", "LiHisRS": 22.58, "CoaBC": -2.071, "MtTrpRS": 1.288}
{"compound": "Cc1cc(C(=O)NCc2cccs2)c2c(C3CCCN3)noc2n1", "stereo": "stereo not drawn", "LiHisRS": 12.41, "CoaBC": -7.368, "MtTrpRS": -0.2593}
{"compound": "O=C(NCC1COCCO1)c1csc(Cc2ccccc2)n1", "stereo": "stereo not drawn", "LiHisRS": 12.7, "CoaBC": -1.988, "MtTrpRS": 0.9909}
{"compound": "COc1ccc(Cl)cc1NCC(=O)NCCNc1cnccn1", "LiHisRS": 40.48, "CoaBC": 0.1186, "MtTrpRS": 0.7042}
{"compound": "O=C(O)c1cc(-c2ccccc2)ns1", "LiHisRS": 9.89, "CoaBC": -11.32, "MtTrpRS": -3.233}
{"compound": "CC(C)CC(=O)N1CCC(c2nnc3n2CCCCC3)CC1", "LiHisRS": 3.158, "CoaBC": 0.9732, "MtTrpRS": 4.232}
{"compound": "Cc1ccc(-n2cc(C(=O)NCc3nnc4n3CCCCC4)nn2)cc1", "LiHisRS": 21.24, "CoaBC": 1.132, "MtTrpRS": -0.6803}
{"compound": "CN1CCC(C)(CN(C)C(=O)c2ccc(CCC(C)(C)O)cc2)C1", "stereo": "stereo not drawn", "LiHisRS": 9.836, "CoaBC": -5.622, "MtTrpRS": -2.807}
{"compound": "CCc1nc(C2CCCN2CCc2cccs2)no1", "stereo": "stereo not drawn", "LiHisRS": -8.571, "CoaBC": -2.376, "MtTrpRS": 6.549}
{"compound": "Cc1cc(Nc2nc(C)cc(C)n2)cc(C2CCCN2)n1", "stereo": "stereo not drawn", "LiHisRS": 4.027, "CoaBC": 0.9132, "MtTrpRS": 0.7542}
{"compound": "CC(C)(C)c1nnc(NCC(=O)N2CCc3sccc3C2)s1", "LiHisRS": 20.54, "CoaBC": -8.333, "MtTrpRS": 9.276}
{"compound": "O=C(N[C@@H]1CN(CC2CC2)[C@@H]2CCCO[C@@H]21)c1cscn1", "LiHisRS": 13.64, "CoaBC": 0.4938}
{"compound": "CN(c1nccc(-c2cnc3sccn3c2=O)n1)C1CCCCC1", "LiHisRS": 8.571, "CoaBC": 0.3614}
{"compound": "O=C(NCC(O)c1ccc(Cl)c(F)c1)NC1CC=CC1", "stereo": "stereo not drawn", "LiHisRS": 17.12, "CoaBC": 8.56, "MtTrpRS": 2.469}
{"compound": "CCO[C@H]1C[C@@H](O)C12CCN(S(=O)(=O)c1ccccc1OC)CC2", "LiHisRS": 5.556, "CoaBC": 1.72, "MtTrpRS": -0.07468}
{"compound": "CC(C(=O)N1CCCN(c2ncccc2C#N)CC1)n1cncn1", "stereo": "stereo not drawn", "LiHisRS": 11.61, "CoaBC": 1.66, "MtTrpRS": -3.008}
{"compound": "O=C(c1cc2c(s1)CCOC2)N1CCCC1Cn1cccn1", "stereo": "stereo not drawn", "LiHisRS": 11.61, "CoaBC": 2.682, "MtTrpRS": -5.649}
{"compound": "Cc1nc[nH]c1-c1nc2cc(S(=O)(=O)N3CCCC3)ccc2n1C", "LiHisRS": 19.23, "CoaBC": 13.01, "MtTrpRS": 1.497}
{"compound": "CC(=O)N(Cc1noc(C2CC2)n1)C1CCN(Cc2cc(C)on2)C1", "stereo": "stereo not drawn", "LiHisRS": -11.61, "CoaBC": 3.959, "MtTrpRS": -2.568}
{"compound": "CC1(C)CN(Cc2cc(C3CCCCC3)no2)CC[C@]1(C)O", "LiHisRS": 10.26, "CoaBC": 1.282, "MtTrpRS": -3.355}
{"compound": "CCCc1nnc(NCCc2noc(C3CCC3)n2)o1", "LiHisRS": 16.48, "CoaBC": -3.855, "MtTrpRS": 2.006}
{"compound": "CC(C)C1CN(c2cnccn2)CCC(=O)N1Cc1ccc(F)cc1", "stereo": "stereo not drawn", "LiHisRS": 17.81, "CoaBC": 10.6, "MtTrpRS": 9.88}

The first 2 entries again:

| Compound | LiHisRS | CoaBC | MtTrpRS |
|---|---|---|---|
| `CC(=O)N[C@@H]1CN(Cc2ccccc2-n2cccn2)C[C@H]1C(C)C` | 5.333 | -2.893 | -1.838 |
| `N#CC1(NC(=O)COc2cc(Cl)cc(Cl)c2)CCOCC1` | 22.58 | -2.071 | 1.288 |